Values from PubChem BioAssay AID743454 (Peter MacCallum Cancer Centre, 2014)
Assay: 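Search for knock-downs that restore vorinostat killing in resistant colon cancer cells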 (primary screen). Cell system: human HCT116-VR colon cancer cells, selected for vorinostat resistance. Reagents: siRNA pool against human genes, 40 nM siRNA pool. Duration: vorinostat for 24 h, read-out about 72 h after transfection. Conditions: vorinostat at 2.5 µM final. Read-out: 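Two measures, CellTiter-Fluor viability and luminescent caspase 3/7 activity, each as fold change against same-plate mock wells, mean of duplicates, then screen-wide robust z-score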. Reading the numbers: viability robust z-score: higher = more viable cells than screen typical; caspase robust z-score: higher = more caspase 3/7 activity than screen typical. Rule for the call: 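Hits are knock-downs in viability class RV1/RV2 or caspase class CA1/CA2, excluding ones that killed cells in the no-drug cell-count arm; hits then retested with single siRNAs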.
Here is one part, drawn at random, of about 18,000 reagents. 450 of them (2.5%) were called active. 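Single biological run; no consistent viability z cut-off exists, so the class columns, not z-scores, define the calls.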

| gene symbol | viability hit class | caspase hit class | viability robust z-score | caspase robust z-score | Outcome |
| --- | --- | --- | --- | --- | --- |
| MUC7 | no change | no change | 2.08 | 1.93 | inactive |
| SYDE1 | no change | no change | 0.31 | -0.02 | inactive |
| ANKRD12 | no change | no change | 1.5 | -0.56 | inactive |
| FBXL13 | no change | no change | -0.92 | 0.44 | inactive |
| CR2 | no change | no change | 2.21 | -0.3 | inactive |
| HMGCS1 | no change | no change | 1.68 | 1.06 | inactive |
| USP48 | no change | no change | 0.49 | 1.4 | inactive |
| DEFB106A | no change | no change | 0.64 | -0.8 | inactive |
| PGAP1 | no change | no change | -0.97 | 4.6 | inactive |
| BRD10 | no change | no change | -0.4 | -0.86 | inactive |
| PRDX4 | no change | no change | 1.16 | -0.32 | inactive |
| NBL1 | no change | no change | 0.76 | 0.26 | inactive |
| CHST15 | no change | no change | 0.63 | 0.72 | inactive |
| MED17 | no change | no change | 1.55 | -0.34 | inactive |
| POLR2A | no change | no change | -4.39 | 1.94 | inactive |
| RYR1 | no change | no change | -0.62 | 0.22 | inactive |
| PLPP2 | no change | no change | -2.27 | -0.8 | inactive |
| MGAT5 | no change | no change | 0.97 | -0.51 | inactive |
| CREB3L2 | no change | no change | -0.28 | 0.02 | inactive |
| MYOM1 | no change | no change | -0.58 | -0.54 | inactive |
| OR2A14 | no change | no change | -0.75 | 0.71 | inactive |
| WASHC5 | no change | no change | -0.88 | -0.41 | inactive |
| COPG1 | no change | no change | -2.71 | 0.14 | inactive |

Targets listed so far whose gene name begins with C or c:
| gene symbol | viability hit class | caspase hit class | viability robust z-score | caspase robust z-score | Outcome |
| --- | --- | --- | --- | --- | --- |
| CR2 | no change | no change | 2.21 | -0.3 | inactive |
| CHST15 | no change | no change | 0.63 | 0.72 | inactive |
| CREB3L2 | no change | no change | -0.28 | 0.02 | inactive |
| COPG1 | no change | no change | -2.71 | 0.14 | inactive |
